Results on one substance are retold here after doi:10.1101/2024.09.03.611033.

Sequences of proteins named here, by UniProt entry; tags and fusion partners are left off.
UniProt Q13148: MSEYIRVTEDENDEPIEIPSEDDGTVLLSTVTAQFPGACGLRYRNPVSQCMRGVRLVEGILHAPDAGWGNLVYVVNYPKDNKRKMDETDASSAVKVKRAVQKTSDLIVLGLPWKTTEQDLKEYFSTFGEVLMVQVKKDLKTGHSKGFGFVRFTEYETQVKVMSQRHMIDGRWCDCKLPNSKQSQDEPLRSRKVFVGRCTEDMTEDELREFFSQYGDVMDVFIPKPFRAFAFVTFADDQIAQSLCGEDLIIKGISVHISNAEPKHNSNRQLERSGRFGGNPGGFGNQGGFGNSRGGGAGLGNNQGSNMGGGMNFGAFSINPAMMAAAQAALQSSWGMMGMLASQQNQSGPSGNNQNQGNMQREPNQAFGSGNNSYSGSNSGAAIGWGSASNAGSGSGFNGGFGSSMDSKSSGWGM

These are yes or no findings as the source states them, for the method shown. Binding seen in cells or lysates may run through a third protein. Some results given as binding are weak or reduced against the parent protein; the word gives no strength. Where a sequence is shown, tags or fusion partners need not be part of it.

For the test, the target named is T1, GFP-tagged human gigaxonin (human) (UniProt Q9H2C0).
T1 sequence: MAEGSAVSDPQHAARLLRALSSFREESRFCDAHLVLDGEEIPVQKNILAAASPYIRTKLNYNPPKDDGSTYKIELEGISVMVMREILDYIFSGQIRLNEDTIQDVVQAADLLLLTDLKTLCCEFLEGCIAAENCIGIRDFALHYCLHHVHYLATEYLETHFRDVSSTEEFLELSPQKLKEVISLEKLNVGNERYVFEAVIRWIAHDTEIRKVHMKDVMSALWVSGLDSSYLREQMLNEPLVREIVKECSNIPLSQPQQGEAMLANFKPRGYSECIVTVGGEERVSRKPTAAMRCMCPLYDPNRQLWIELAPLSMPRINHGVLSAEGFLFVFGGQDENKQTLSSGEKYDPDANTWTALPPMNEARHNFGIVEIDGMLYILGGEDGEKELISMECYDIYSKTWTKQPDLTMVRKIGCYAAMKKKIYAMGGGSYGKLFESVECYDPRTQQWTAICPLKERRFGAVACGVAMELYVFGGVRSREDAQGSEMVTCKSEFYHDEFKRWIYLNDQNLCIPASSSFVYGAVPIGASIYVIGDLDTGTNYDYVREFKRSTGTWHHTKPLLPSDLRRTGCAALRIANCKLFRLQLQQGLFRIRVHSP
The test can be described thus: co-IP; GFP-Gig from TritonX-100-soluble HEK293 lysate captured on TurboGFP-Trap magnetic agarose beads overnight at 4°C; immunoblot for PCBP2 and TDP-43.

Take “TAR DNA-binding protein 43 (from UniProt Q13148 1-414)”: the binding entry is on record as “binds”.
